Test results from US10792282B2, “Protein kinase C inhibitors and uses thereof” (Rigel Pharmaceuticals, Inc., priority 2013, dated 2020).
Some of these results come from one statement about several compounds together.

Tested on: PKC mediated IL-2 production
Assay: IL-2 ELISA, human primary T cell, anti CD3+CD28+ (whole cell functional assay)
Assay type: cell-based
Settings: human primary T cells stimulated with αCD3 and αCD28, IL-2 by ELISA; read-out: EC50 (blocked IL-2 production)
Procedure: Human primary T cells were prepared as follows. Fresh PBMC's from All Cells (Cat # PB002) were re-suspended in RPMI (RPMI-1640 with L-Glutamine; Mediatech, Inc., Herndon Va., cat. #10-040-CM) with 10% FBS and seeded into flasks and incubated at 37° C. for 2 hours to allow the monocytes to adhere. The non-adherent cells were then centrifuged and re-suspended in RPMI medium containing 40 U/ml IL2 and seeded into a flask pre-coated with 1 μg/ml aCD3 and 5 ug/ml aCD28 (Anti-Human CD3, BD Pharmingen Catalog #555336, Anti-Human CD28, Beckman Coulter Catalog # IM1376). The cells were stimulated for 3-4 days, then transferred to a fresh flask and maintained in RPMI (RPMI-1640 with L-Glutamine; Mediatech, Inc., Herndon Va., cat. #10-040-CM) with 10% FBS and 40 U/ml IL-2.
(§1) Human primary T cells (100,000 cells per well) were pre-incubated with or without test compound in RPMI-1640 with L-Glutamine and 10% FBS for 1 hour at 37° C. Cells were then stimulated by transferring them to round-bottom 96-well plates pre-coated with 1 μg/ml αCD3 and 5 μg/ml αCD28. For counter assay, cells were instead stimulated by adding 8× stock solutions of PMA and ionomycin in RPMI-1640 with L-Glutamine and 10% FBS (for final concentrations of 0.5 ng/ml PMA and 0.1 μM ionomycin, both from Calbiochem). Cells were incubated at 37° C. for 24 hours before 100 μL supernatants were harvested for quantification of IL-2 by ELISA using Human IL-2 Duoset ELISA Kit from R and D Systems, Cat. # DY202E.
Compounds 1-90 were tested in a whole cell functional assay for PKC mediated IL-2 production as follows. Human primary T cell isolation and culture: Human primary T cells were prepared as follows. Whole blood was obtained from a healthy volunteer, mixed 1:1 with PBS, layered on to Ficoll Hypaque (Amersham Pharmacia Biotech, Piscataway, N.J., Catalog #17-1440-03) in 2:1 blood/PBS:ficoll ratio and centrifuged for 30 minutes at 4° C. at 1750 rpm. The cells at the serum: ficoll interface were recovered and washed twice with 5 volumes of PBS. These freshly isolated human peripheral blood mononuclear cells were cultured in Yssel's medium containing 40 U/ml IL2 in a flask pre-coated with 1 μg/ml αCD3 and 5 μg/ml αCD28 (Anti-Human CD3, BD Pharmingen Catalog #555336, Anti-Human CD28, Beckman Coulter Catalog # IM1376). The cells were stimulated for 3-4 days, then transferred to a fresh flask and maintained in RPMI (RPMI-1640 with L-Glutamine; Mediatech, Inc., Herndon Va., cat. #10-040-CM) with 10% FBS and 40 U/ml IL-2. The primary T-cells were then washed twice with PBS to remove the IL-2.
as §1, with “Primary T cell stimulation and IL2 ELISA: Human primary” for “Human primary”, “compound in Yssel's medium for 1” for “compound in RPMI-1640 with L-Glutamine and 10% FBS for 1”, “ionomycin in Yssels (for final” for “ionomycin in RPMI-1640 with L-Glutamine and 10% FBS (for final”, “and 0.1 uM ionomycin, both” for “and 0.1 μM ionomycin, both”

Work on `Cn1nnn(-c2cc(Nc3ncc(F)c(N[C@@H]4CCN5C(CCC5(C)C)C4)n3)c(F)cc2C2CC2)c1=O` (mixture of isomers) [Compound 25] yielded an EC50 of less than 10 µM.
With `CC1(C)CC(Nc2nc(Nc3cc(-n4cnnn4)c(C4CC4)cc3F)ncc2F)CC2CCCN21` (racemic) [Compound 54, (±)-N2-(4-cyclopropyl-2-fluoro-5-(1H-tetrazol-1-yl)phenyl)-5-fluoro-n^4-(octahydro-5,5-dimethylindolizin-7-yl)pyrimidine-2,4-diamine] the EC50 was less than 10 µM.
Work on `CC1(C)CC(Nc2nc(Nc3cc(-n4cnnn4)c(C4CC4)cc3F)ncc2F)CC2CCCN21` (racemic) [Compound 55, (±)-N2-(4-cyclopropyl-2-fluoro-5-(1H-tetrazol-1-yl)phenyl)-5-fluoro-n^4-(octahydro-5,5-dimethylindolizin-7-yl)pyrimidine-2,4-diamine] yielded an EC50 of less than 10 µM.
Work on `Cn1nnn(-c2cc(Nc3ncc(F)c(N[C@@H]4CCN5[C@@H](CCC5(C)C)C4)n3)c(F)cc2C2CC2)c1=O` (single isomer, unassigned) [Compound 36] yielded an EC50 of less than 10 µM.
`Cn1nnn(-c2cc(Nc3ncc(F)c(N[C@H]4CCN5[C@@H](CCC5(C)C)C4)n3)c(F)cc2C2CC2)c1=O` (single isomer, unassigned) [Compound 37] gave an EC50 of less than 10 µM.
Molecule `Cn1nnn(-c2cc(Nc3ncc(F)c(NC4CC5CCCN5C(C)(C)C4)n3)ccc2OC2COC2)c1=O` (single isomer, unassigned) [Compound 40, 1-(5-(5-fluoro-4-(octahydro-5,5-dimethylindolizin-7-ylamino)pyrimidin-2-ylamino)-2-(oxetan-3-yloxy)phenyl)-4-methyl-1H-tetrazol-5(4H)-one] has an EC50 of less than 10 µM.
`CC1(C)CC(Nc2nc(Nc3ccc(O[C@@H]4CCOC4)c(C#N)c3)ncc2F)CC2CCCN21` (single isomer, unassigned) [Compound 59] was tested, and the EC50 was less than 10 µM.
With `CC1(C)CC(Nc2nc(Nc3ccc(O[C@H]4CCOC4)c(C#N)c3)ncc2F)CC2CCCN21` (single isomer, unassigned) [Compound 62] the EC50 was less than 10 µM.
Work on `CC1(C)Oc2ccc(Nc3ncc(F)c(NC4CC5CCCN5C(C)(C)C4)n3)cc2-n2nnnc21` (centres unmarked) [Compound 1, N2-(4,4-dimethyl-4H-benzo[b]tetrazolo[1,5-d][1,4]oxazin-8-yl)-5-fluoro-N4-(octahydro-5,5-dimethylindolizin-7-amine)pyrimidine-2,4-diamine] yielded an EC50 of less than 10 µM.
`CC1(C)Oc2ccc(Nc3ncc(F)c(NC4CC5CCCN5C(C)(C)C4)n3)cc2-n2nnnc21` (centres unmarked) [Compound 2, N2-(4,4-dimethyl-4H-benzo[b]tetrazolo[1,5-d][1,4]oxazin-8-yl)-5-fluoro-N4-(octahydro-5,5-dimethylindolizin-7-amine)pyrimidine-2,4-diamine] was tested, and the EC50 was less than 10 µM.
`CC1(C)Oc2ccc(Nc3ncc(F)c(NC4CC5CCCN5C(C)(C)C4)n3)cc2-n2nnnc21` (centres unmarked) [Compound 3, N2-(4,4-dimethyl-4H-benzo[b]tetrazolo[1,5-d][1,4]oxazin-8-yl)-5-fluoro-N4-(octahydro-5,5-dimethylindolizin-7-amine)pyrimidine-2,4-diamine] gave an EC50 of less than 10 µM.
`CC1(C)Oc2ccc(Nc3ncc(F)c(NC4CC5CCCN5C(C)(C)C4)n3)cc2-n2nnnc21` (centres unmarked) [Compound 4, N2-(4,4-dimethyl-4H-benzo[b]tetrazolo[1,5-d][1,4]oxazin-8-yl)-5-fluoro-N4-(octahydro-5,5-dimethylindolizin-7-amine)pyrimidine-2,4-diamine] gave an EC50 of less than 10 µM.
`CC(C)N1CCC(Oc2ccc(Nc3ncc(F)c(NC4CC5CCCN5C(C)(C)C4)n3)cc2OC(F)F)CC1` (centres unmarked) [Compound 6, (R/S, S/R, R/R, S/S)—N^2-(4-(1-isopropylpiperidin-4-yloxy)-3-(difluoromethoxy)phenyl)-5-fluoro-N^4-(octahydro-5,5-dimethylindolizin-7-yl)pyrimidine-2,4-diamine] was tested, and the EC50 was less than 10 µM.
`CC(C)N1CCC(Oc2ccc(Nc3ncc(F)c(NC4CC5CCCN5C(C)(C)C4)n3)cc2OC(F)F)CC1` (centres unmarked) [Compound 7, (R/S, S/R, R/R, S/S)—N^2-(4-(1-isopropylpiperidin-4-yloxy)-3-(difluoromethoxy)phenyl)-5-fluoro-N^4-(octahydro-5,5-dimethylindolizin-7-yl)pyrimidine-2,4-diamine] gave an EC50 of less than 10 µM.
In the case of `CC(C)N1CCC(Oc2ccc(Nc3ncc(F)c(NC4CC5CCCN5C(C)(C)C4)n3)cc2OC(F)F)CC1` (centres unmarked) [Compound 8, (R/S, S/R, R/R, S/S)—N^2-(4-(1-isopropylpiperidin-4-yloxy)-3-(difluoromethoxy)phenyl)-5-fluoro-N^4-(octahydro-5,5-dimethylindolizin-7-yl)pyrimidine-2,4-diamine], the EC50 is reported as less than 10 µM.
Work on `CC(C)N1CCC(Oc2ccc(Nc3ncc(F)c(NC4CC5CCCN5C(C)(C)C4)n3)cc2OC(F)F)CC1` (centres unmarked) [Compound 9, (R/S, S/R, R/R, S/S)—N^2-(4-(1-isopropylpiperidin-4-yloxy)-3-(difluoromethoxy)phenyl)-5-fluoro-N^4-(octahydro-5,5-dimethylindolizin-7-yl)pyrimidine-2,4-diamine] yielded an EC50 of less than 10 µM.
Molecule `CC(C)N1CCC(Oc2ccc(Nc3ncc(F)c(NC4CC5CCCN5C(C)(C)C4)n3)cc2OC(F)F)CC1` (centres unmarked) [Compound 10, (R/S, S/R, R/R, S/S)—N^2-(4-(1-isopropylpiperidin-4-yloxy)-3-(difluoromethoxy)phenyl)-5-fluoro-N^4-(octahydro-5,5-dimethylindolizin-7-yl)pyrimidine-2,4-diamine] has an EC50 of less than 10 µM.
Molecule `COc1cc(Nc2ncc(F)c(NC3CC4CCCN4C(C)(C)C3)n2)cc(-n2nnnc2C)c1` (centres unmarked) [Compound 11, (R/S, S/R, R/R, S/S)-5-fluoro-N4-(octahydro-5,5-dimethylindolizin-7-yl)N2-(3-methoxy-5-(5-methyl-1H-tetrazol-1-yl)phenyl)pyrimidine-2,4-diamine] has an EC50 of less than 10 µM.
`COc1cc(Nc2ncc(F)c(NC3CC4CCCN4C(C)(C)C3)n2)cc(-n2nnnc2C)c1` (centres unmarked) [Compound 12, (R/S, S/R, R/R, S/S)-5-fluoro-N4-(octahydro-5,5-dimethylindolizin-7-yl)N2-(3-methoxy-5-(5-methyl-1H-tetrazol-1-yl)phenyl)pyrimidine-2,4-diamine] showed an EC50 of less than 10 µM.
Molecule `COc1cc(Nc2ncc(F)c(NC3CC4CCCN4C(C)(C)C3)n2)cc(-n2nnnc2C)c1` (centres unmarked) [Compound 13, (R/S, S/R, R/R, S/S)-5-fluoro-N4-(octahydro-5,5-dimethylindolizin-7-yl)N2-(3-methoxy-5-(5-methyl-1H-tetrazol-1-yl)phenyl)pyrimidine-2,4-diamine] has an EC50 of less than 10 µM.
`COc1cc(Nc2ncc(F)c(NC3CC4CCCN4C(C)(C)C3)n2)cc(-n2nnnc2C)c1` (centres unmarked) [Compound 14, (R/S, S/R, R/R, S/S)-5-fluoro-N4-(octahydro-5,5-dimethylindolizin-7-yl)N2-(3-methoxy-5-(5-methyl-1H-tetrazol-1-yl)phenyl)pyrimidine-2,4-diamine] was tested, and the EC50 was less than 10 µM.
In the case of `Cc1ncc(Nc2ncc(F)c(NC3CC4CCCN4C(C)(C)C3)n2)cc1-n1nnnc1C` (centres unmarked) [Compound 15], the EC50 is reported as less than 10 µM.
With `Cn1nnn(-c2cc(Nc3ncc(F)c(NC4CCN5CCCC5C4)n3)c(F)cc2C2CC2)c1=O` (centres unmarked) [Compound 29] the EC50 was less than 10 µM.
`CC(=O)N(C)c1cc(Nc2ncc(F)c(NC3CC(C)(C)N4CCCC4C3C)n2)c(F)cc1C1CC1` (centres unmarked) [Compound 73] gave an EC50 of less than 10 µM.
`CC1C(Nc2nc(Nc3cc(N(C)C(=O)N(C)C)c(C4CC4)cc3F)ncc2F)CC(C)(C)N2CCCC12` (centres unmarked) [Compound 74] showed an EC50 of less than 10 µM.
Molecule `CC1C(Nc2nc(Nc3cc(OC(F)F)c(C4CC4)cc3F)ncc2F)CC(C)(C)N2CCCC12` (centres unmarked) [Compound 75] has an EC50 of less than 10 µM.
